Results deposited as PubChem BioAssay AID1508588 (Peter MacCallum Cancer Centre, 2020)

Screen: 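Knock-downs boosting vemurafenib effects on melanoma cell growth or lactate release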 (primary screen)
Cells: human WM266.4 melanoma cells (BRAF V600 mutant)
Reagent: siRNA pool against human genes, 40 nM
Timing: 96 h from transfection to read-out
Challenge: vemurafenib 300 nM (about IC25), added 48 h after transfection, for 48 h; comparison arm got DMSO vehicle only
Measurement: 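Ratios to non-targeting siRNA for cell gain, counted as DAPI nuclei after minus before drug and averaged over two replicates, and for absorbance-read medium lactate per cell; both binned into fold-change classes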
Scale: cell gain with vemurafenib: higher = more cell gain than with non-targeting siRNA; lactate per cell with vemurafenib: higher = more lactate made per cell
Rule for the call: 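Enhancement is called by pairing each knock-down's vehicle-arm and drug-arm fold-change classes for viability or glycolysis; which class combinations qualify is not given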
Calls: active = enhances vemurafenib effect; inactive = no enhancement seen
This is an unselected part of about 18,000 deposited reagents. 790 of them (4.4%) were called active. 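Calls rest on a combination of fold-change classes in drug and vehicle arms, not all shown here.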 Unmarked entries are inactive.

| gene | cell gain with vemurafenib | lactate per cell with vemurafenib |
| --- | --- | --- |
| ZMAT2 | 0.35 | 1.5 |
| GHDC | 0.45 | 1.16 |
| RAB9B | 0.47 (active) | 0.66 |
| MYT1L | 0.54 | 1.67 |
| CYB561D1 | 0.77 | 0.74 |
| LCMT2 | 0.74 | 0.28 |
| ETFDH | 0.74 (active) | 0.53 |
| BICDL1 | 0.12 | 2.54 |
| DNAJB6 | 0.36 | 0.75 |
| PTGES2 | 1.52 | 1.24 |
| MR1 | 0.86 | 0.82 |
| CRLF2 | 0.36 | 1.04 |
| C1QTNF2 | 0.29 | 0.92 |
| NUP62 | 0.27 | 2 |
| NDUFB5 | 0.39 | 1.86 |
| LCE3B | 0.57 | 1.27 |
| SSR2 | 0.19 | 2.46 |
| TMEM117 | 0.74 | 0.78 |
| CDK5RAP2 | 0.55 | 0.94 |
| NCOR1 | 0.46 | 1.16 |
| SLC25A25 | 0.76 | 0.98 |
| GPIHBP1 | 0.71 | 1 |
| ZNF600 | 1.08 | 0.74 |
| HLA-E | 0.93 | 0.76 |
| PAX4 | 0.73 | 1.24 |
| SLCO2B1 | 0.53 | 0.88 |
| KDM1B | 1.09 | 0.68 |
| GOLGA2 | 0.22 (active) | 0.36 |
| PARP10 | 0.85 | 1.23 |
| VPS4B | 0.44 | 0.36 |
| TRIML2 | 0.6 | 0.17 |
| SSX9P | 0.85 | 0.78 |
| PPP3CC | 0 (active) | 0.16 |
| GSN | 0.28 | 0.98 |
| HOXB1 | 0.7 | 1.1 |
| SELENOP | 0.85 | 0.67 |
| TMEM52 | 0.47 | 0.43 |
| RRAGC | 0.83 | 1.04 |
| CHRND | 0.93 | 0.63 |
| NDUFA5 | 0.27 | 2.75 |
| ZNF449 | 0.39 | 1.73 |
| CTBP1-DT | 0.73 | 0.58 |

Entries above whose target name starts with T or t:
| gene | cell gain with vemurafenib | lactate per cell with vemurafenib |
| --- | --- | --- |
| TMEM117 | 0.74 | 0.78 |
| TRIML2 | 0.6 | 0.17 |
| TMEM52 | 0.47 | 0.43 |

Next reagents follow.
| gene | cell gain with vemurafenib | lactate per cell with vemurafenib |
| --- | --- | --- |
| BEND5 | 0.7 | 1.08 |
| H1-8 | 0.26 | 1.17 |
| IGDCC3 | 0.2 | 2.02 |
| TDRD12 | 0.27 | 0.4 |
| KRTAP5-9 | 0.94 | 0.93 |
| UPRT | 0.25 | 2.08 |
| DNAJC10 | -0.1 | 1.06 |
| OR10A4 | 0.58 | 1.43 |
| APCDD1 | 0.91 | 0.52 |
| NDUFA11 | 0.83 | 1.71 |
| ZNF41 | 0.31 | 0.54 |
| KRT23 | 0.94 | 0.77 |
| MID2 | 0.98 | 0.52 |
| UQCC1 | 0.27 | 1.38 |
| OR8U3 | 0.27 | 0.94 |
| LDHAL6B | 0.4 | 0.84 |
| GLIPR1 | 0.94 | 0.67 |
| CRISP1 | 0.19 | 1.61 |
| SLCO4A1 | 0.96 | 1.01 |
| MOBP | 0.33 | 0.46 |
| ST6GAL2 | 0.44 | 0.74 |
| OR4C6 | 0.46 | 1.56 |
| SLC9A8 | 0.74 | 0.64 |
| PPP1R12C | 0.98 | 0.69 |
| GBP1 | 0.7 | 0.8 |
| VCF1 | 0.49 | 1.08 |
| DDIAS | 0.76 | 0.8 |
| ARHGEF9 | 0.39 | 2.29 |
| CCKBR | 1.05 | 0.54 |
| PUS10 | 0.63 (active) | 0.48 |
| ICAM2 | 0.75 | 0.94 |
| DVL3 | 0.91 | 0.88 |
| FRG1 | 0.46 (active) | 0.47 |
| MYBBP1A | 0.71 | 0.81 |
| ALDH1L1 | 0.29 | 1.75 |
| STIM1 | 0.62 | 0.94 |
| EPDR1 | 0.8 | 0.77 |
| FAM186B | 0.98 | 0.72 |
| ZNF649 | 1.03 | 0.68 |
| HOXA5 | 0.26 | 0.36 |
| NUP155 | 0.49 | 0.72 |
| LEPROTL1 | 0.11 | 1.25 |
